Out of some 52,000 sequences screened, about 210 (0.4%) were called active.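 The calls were made as follows: active = gene whose silencing raises cell survival under the drug, median off-target-corrected z-score across its silencing RNAs 2 or more; inactive = the rest.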 This is one part of the list.

The nature of the assay: Resistance to Poly (ADP-Ribose) Polymerase inhibitor: Gene Identification via Genome-wide siRNA Screen. Conditions: mouse BRCA2 R2336H ES cells, olaparib, CellTiter-Glo viability; stronger effect = higher value. The method, boiled down:
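Genome-wide siRNA screen (3 siRNAs/gene, 20 nM) in mouse ES cells carrying hypomorphic BRCA2 R2336H; olaparib 500 nM added 48 h post-transfection, CellTiter-Glo viability 72 h later. Normalized to plate-median negative control; MAD z-scores, gene median, seed-adjusted.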
In the case of GCCACAGUCCAAAUCUGCATT against BC003331, the z-score is inactive: 0.967.

Consider “GGUUAUGUCGCUAAGGAAATT against 3200001F09Rik”, for which the z-score is inactive: 0.101. Take GGCUGUGGAUUAAAUUAUCTT against Prkcn: the z-score is inactive: 0.591.

For the sequence GGAUAGACAUCAGAAACUATT against Ranbp17, the z-score was inactive: 0.209. For GGGAGUUGGUGGAAUGCUUTT against Ech1 the value was inactive: -0.663; for GGACAAUGAUUUUCUGAUUTT against Sv2b, inactive: 0.422. As for GGCCUUUGGGAAAACAUGGTT against Zcchc14, the figure is inactive: 0.255; as for “GCUCCAGCUUGCACUCUUGTT against 2410019G02Rik”, inactive: 1.94. For GGGUCAUCUGUAAUUUCCATT against Cst10 the value was inactive: 1.51. For the sequence GCCUUUUACUACCAUCCCGTT against Rbm9, the z-score was inactive: 1.89. Consider CCGAUGGAUGAUCAAGACATT against Plekhf1, for which the z-score is inactive: 0.0852. As for GCCAAUAGUAACCAGCCAGTT against Prkab1, the figure is inactive: 1.4; as for GCCUGGACCUUAAUUACUUTT against Ptpn14, inactive: -0.611; as for GGAUUUUUGACUGUGAUUCTT against Pak1ip1, inactive: -0.0929. As for “GCACAACACGGCUAAACCUTT against 2810443J12Rik”, the figure is inactive: -0.775; as for “CCCUUGUCCAGUGUGAGUUTT against 4732495E13Rik”, inactive: -0.506; as for “GGUAAAGUGAACUGUACCUTT against 2200002K05Rik”, inactive: 0.85. Take GCUUCGUUACGACGAUGAGTT against Ndufs3: the z-score was inactive: 0.701.

GGCAAAAUCUCCUCUAUCUTT against Olfr905: the z-score was inactive: -0.797. In the case of “GGCUCCUCUACACAGGCAATT against 2310043K02Rik”, the z-score was inactive: -1.31.

For the sequence GGAUGACGAUUGUUUAUCATT against Bcl11a, the z-score was inactive: 0.887. As for “GCCACUACUAAUAGCAUGUTT against 5330438I03Rik”, the figure is inactive: 0.24; as for GGUGAAAUGAGAAUACUUGTT against Arts1, inactive: 0.305. Regarding AAUGUAGUCAAAUCAAAGATT against Sprr2a, the z-score was inactive: -0.521.

Turning to GACGAUCAAGAUAUGAUGGTT against Olfr196, the z-score is inactive: 0.926. As for GGGCUCUUUGAUAAUCACUTT against Dnajb11, the figure is inactive: 0.318; as for GGAACACAGAAGUGAAAAATT against Olfr1260, inactive: -1.44. For GGUGACCUGUUCAGAACAUTT against Timm10 the value was inactive: -0.88; for GCUACAAGUGAUCGUCAAUTT against Schip1, inactive: 1.01; for GCGGGUUAACUUGUUUGGUTT against Gm1053, inactive: 0.891. As to GGGUUUCAGAACUGAGUUATT against Saa1, the z-score was inactive: 1.67. Take GGCGAAGUGGUUAAAAGUGTT against Ifnar1: the z-score was inactive: -0.285. As for GGUGCUAUUUACCAAACUCTT against Btg2, the z-score was inactive: 0.997.

As for GGUAUUGACAGAAUGAGUUTT against Zfp109, the z-score was inactive: -0.89. For the sequence GGUUUGUUAUGCUAUUGUATT against Defcr4, the z-score is inactive: 0.358. Consider GCUUGAUUUUAUGUUAGCUTT against Hapln1, for which the z-score was inactive: -2.62. Take CGCAUUGAUUCAUUUAAUGTT against Abca8a: the z-score is inactive: 0.898. As for “GGGAUCACAUCUUAAGUAATT against 4933428M03Rik”, the figure is inactive: 0.0811. GGUACUGCUAAGCAAAGUCTT against Zdhhc3: the z-score is inactive: -0.0759. For the sequence GGAGAAGAGCCUUCUCAAGTT against Sfrs4, the z-score was inactive: -0.351. As for CGGAAAAAUUCGGAAAGAATT against Tulp4, the figure is inactive: -1.11. In the case of GCCUCUUUAUAAUAUAAGGTT against Rnf134, the z-score is inactive: -0.745. As for GGUGGAGGUCUGGUUUAAGTT against Gsc, the figure is inactive: 2.48; as for “GGAAAUUUUGGAGAUGAUATT against 5730444A13Rik”, inactive: -0.496; as for GGAGUUUGACAAAGAGAAATT against Mlc1, inactive: -0.165.

As to CCGGAUCCAGAAUACAUUATT against Laf4, the z-score was inactive: 1.41. For the sequence GGUGGCUCAAUUCUUGAAGTT against Tagln, the z-score is inactive: -0.445. On to “CCAAACAGUUCACAAUUCCTT against 1500003O22Rik”, for which the z-score was inactive: 0.363. On to “CCUCAAGGAUAAUUAUUACTT against 4933434I20Rik”, for which the z-score is inactive: 0.375. Consider GCCCUUGCCUCUGUAGAUGTT against Olfr857, for which the z-score was inactive: 1.36. In the case of GGAAAGCAAAAGUUUACAATT against Mdh1b, the z-score was inactive: 1.29. As for GGCCGUGUGCAUCUUUGUGTT against Gpr20, the figure is inactive: 1.38; as for GGAAAUCUUAACUAGUAUGTT against Nutf2, inactive: -0.269. In the case of GGAUGUGGCUGAAUCUCUGTT against Zfp99, the z-score was inactive: 0.191. Regarding AGGCACGUCUGAUUGCAUGTT against LOC432823, the z-score is inactive: 1.03. For GGAUCGAACUGAGAACUUUTT against Leng4, the z-score is inactive: 0.253.

As for GGAGUUUCAACAAAGAAGCTT against Dock3, the z-score was inactive: 0.783. Turning to GGAAGGAUCAUUCUGUGAATT against Ly6h, the z-score was inactive: -1.74. With GCCGGAGUUAUGAAAGGAGTT against Fusip1, the z-score was inactive: 0.619. Regarding CUGCUAUGACGACAACUACTT against Ngfg, the z-score is inactive: 0.254. In the case of GGUCACAAUGAAGGUCAAGTT against Plxdc1, the z-score was inactive: -0.326. For the sequence “GCGGCUAAAUAUCAACACUTT against 2310005P05Rik”, the z-score is inactive: 1.7. In the case of GGGAUCUAAGAAAGCCAUCTT against Hist1h2bb, the z-score was inactive: -0.782. Consider GUACGGCAACAUGACCCAGTT against Ii, for which the z-score is inactive: 1.25. GGACAUGUGAAGAUAAACGTT against Mug1: the z-score is inactive: -0.178. Turning to CCGGAAAAAGGAUAAGACATT against Rgs6, the z-score was inactive: 0.495. In the case of GGGCCAAAUUUGAAUCCCUTT against Dscr1, the z-score is inactive: 0.608. For the sequence GCUAUUGGAUGAGCGAUUGTT against Crlf3, the z-score was inactive: -0.73. As for “GGAUUCAGAAUCCAUCUCUTT against 5530600A18Rik”, the figure is inactive: 1.72; as for GCAUGCAUGGUACAAUUUUTT against Olfr1166, inactive: -0.964; as for “GGACAAGGAAAAGUCUUUATT against 2810403B08Rik”, inactive: -0.991.

As for GGUAGUGGACAGUUUUGACTT against Mrpl55, the z-score was inactive: 1.83. For the sequence GGCUUCUUUUGCUACACCUTT against Olfr729, the z-score was inactive: -0.7. For the sequence CCUGGAACUUGUCUUUUUUTT against Olfr1388, the z-score is inactive: 1.25. In the case of CCAUCAUUGUUCUUGCAAGTT against Olfr1387, the z-score was inactive: 0.403. Take CCACUUUAGCUCCUUUAAGTT against BC037432: the z-score is inactive: 0.0326. “GGUUUUCAAAGUCUUUUACTT against 9130017A15Rik”: the z-score is inactive: -0.131. For the sequence GCCGAUGGAUUCCUCUCAUTT against Rhot1, the z-score is inactive: 1.87. On to GGCAGGACAAAACACCAAATT against C86302, for which the z-score was inactive: -0.277.

As to GGAUGUUUCGAAUUAAGAGTT against Uqcrb, the z-score is inactive: 0.183. As for GGUGAAAUAGCUAAAUCAUTT against Usp15, the figure is active: -0.572; as for GGCCUUUAACAUCCGCCUATT against Ddb1, inactive: -0.944. In the case of “CGCGCAUUGUGUUGCACUATT against 4930415J05Rik”, the z-score is inactive: -0.265. As for GGUGGCAUGUCAUUGCUUCTT against Igf2, the figure is inactive: 1.16. In the case of GCACUGUGAAUGCUAUACCTT against Suv420h2, the z-score is inactive: 1.64.

For the sequence GGUUCUUUUCCUGUUUUACTT against Olfr434, the z-score was inactive: -0.00597. As for “GGAACAACUGAAAAUGAAGTT against 1110018J12Rik”, the z-score is inactive: -0.195. With UCGCCUACGGACUGUUCGGTT against Kcnk12, the z-score is inactive: 0.123. As for GCACUGCCCAACAACCAUUTT against Scamp4, the figure is inactive: -0.0209; as for GGAGAAAAUGAUAACAUGCTT against Mto1, inactive: -0.00142; as for GGAACAUGGUGUAAAUUCUTT against Serpinb9e, inactive: -0.0827.

GGAUCAUAGAGCAUCUUGATT against BC010462: the z-score was inactive: 0.679. For the sequence GGUGUGAUUGAAGAAGCGGTT against Gpr37, the z-score is inactive: -1.3. Consider GGAAUUCUUUGGACUGAAUTT against Ccr5, for which the z-score is inactive: -1.72.

Take “GCCACCAAAUUUAUGGUAUTT against 1700022N24Rik”: the z-score is inactive: -1.58. In the case of CGCUGCAUUAAAGACUAAATT against Kcnj10, the z-score is inactive: -0.905. As to “GCCAAGUAUUUUAAUGCAATT against 0610025O11Rik”, the z-score was inactive: 0.518. As for GGACUUUCGUGAGAGAUUUTT against Fpr-rs2, the z-score is inactive: -0.874.

With GGGUUUUGUGUAAAAGGUUTT against Olfr584, the z-score is active: 1.72. As for GGAGAAUCCCAGCAACUCUTT against Sall2, the z-score was inactive: 0.904. As for GGACAUAAUCAAAGACAUCTT against Ddc, the z-score was inactive: 0.399. With CCUUCCAAGAUCAAUAAGATT against Epb4.2, the z-score was inactive: 0.324. As to GGGUCUCAUACCUAAGGACTT against Wnt3a, the z-score was inactive: 0.391. Consider GGUGGUGACUAAGAAAUUCTT against Prps1, for which the z-score is inactive: -0.221.

For the origin of these results see PubChem BioAssay AID1347423 (Functional Genomics Laboratory (NCATS/FGL), 2020).
